Data source: PubChem BioAssay AID686943 (Drosophila RNAi Screening Center, 2013)
Aim: 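Knockdowns that increase or decrease active ERK after insulin receptor stimulation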 (primary screen). System: Drosophila S2R+ haemocyte-like cells expressing YFP-tagged ERK (Rolled). Knock-down reagent: long dsRNA against Drosophila genes. Treatment: insulin stimulation versus unstimulated cells; dose and duration not given. Read-out: 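Per-plate z-scores of phospho-ERK immunostaining normalised to YFP-tagged ERK, measured with and without insulin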. Scale: replicate 1, z-score of dpERK with insulin and replicate 2, z-score of dpERK with insulin: higher = more active ERK per ERK-YFP after insulin; replicate 1, z-score of dpERK under basal conditions: higher = more basal active ERK per ERK-YFP; replicate 1, z-score of ERK-YFP with insulin: higher = more YFP-tagged ERK signal.
The screen tested about 23,000 reagents; this is a random part of those with a known target gene and a result. 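Extra replicates exist only for a retested subset of genes; insulin dose and duration not given; both raised and lowered dpERK matter.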 Reagents against one gene are numbered here. A plus sign joins genes that one reagent is predicted to hit. The record does not give: the amount of reagent, the time to read-out.

| Target gene | reagent no. | replicate 1, z-score of dpERK with insulin | replicate 2, z-score of dpERK with insulin | replicate 1, z-score of dpERK under basal conditions | replicate 1, z-score of ERK-YFP with insulin |
| --- | --- | --- | --- | --- | --- |
| LManV | 1 | -0.73 | -0.02 | -1.35 | 0.19 |
| CG34398 | 1 | 0.6 | 1.43 | 0.95 | -1.04 |
| CG34398 | 2 | -5.23 | -3.51 | -2.44 | -1.45 |
| CG34398 | 3 | -2.6 | -1.95 | -0.49 | -1.27 |
| CG34398 | 4 | 0.82 | 0.04 | -0.81 | 0.21 |
| drosha | 1 | 0.84 | 0.55 | -0.72 | 0.39 |
| CG16775 | 1 | -0.67 | 0.24 | -1.38 | 0.11 |
| Jhbp2 | 1 | -0.77 | -0.65 | 1.19 | 0.24 |
| Srlp | 1 | -5.33 | -3.96 | -3.19 | 0.15 |
| CG5938 | 1 | -0.08 | -2.31 | -0.45 | 0.1 |
| retinin | 1 | 0.98 | 1.14 | 0.76 | -0.19 |
| CG10104 | 1 | 0.52 | 0.49 | -0.25 | 0.41 |
| wls | 1 | 0.11 | 0.95 | 0.64 | 1.37 |
| CG5267 | 1 | -0.61 | 0.2 | 0.05 | 0.33 |
| hkb | 1 | 1.1 | 1.55 | 0.4 | -0.41 |
| RhoBTB | 1 | 0.52 | -0.49 | 0.78 | -0.13 |
| Sirup | 1 | 0.86 | 0.76 | 0.96 | -0.15 |
| Elk | 1 | -0.76 | 0.34 | 0.35 | 0.73 |
| NimB1 | 1 | 0.48 | -0.41 | -0.22 | 0.09 |
| CG34148 + P5CDh2 | 1 | 0.61 | -0.21 | 0.44 | -0.07 |
| form3 | 1 | -0.16 | -0.12 | -0.34 | 0.43 |
| form3 | 2 | -0.12 | -0.14 | -0.2 | -0.33 |
| form3 | 3 | 0.89 | 0.8 | -0.24 | -0.23 |
| cato | 1 | 0.01 | -0.06 | 0.72 | -0.31 |
| gas | 1 | 0.01 | 0.11 | 0.84 | -0.54 |
| CG30345 | 1 | 0.03 | 0.33 | -0.23 | -0.01 |
| BomS2 | 1 | 0.76 | 0.42 | 1.69 | 0.02 |
| Ugt307A1 | 1 | -0.16 | -0.3 | 1.03 | 0.5 |
| Cyp18a1 | 1 | 1.84 | 1.73 | 1.12 | -0.7 |
| CG32806 | 1 | 0.24 | -0.4 | 0.63 | 1.87 |
| CG13403 | 1 | 0.2 | 0.15 | 0.9 | 0.42 |
| Asator | 1 | 0.25 | -0.66 | -0.16 | -0.02 |

The list goes on; the last 7 above are carried over.
| Target gene | reagent no. | replicate 1, z-score of dpERK with insulin | replicate 2, z-score of dpERK with insulin | replicate 1, z-score of dpERK under basal conditions | replicate 1, z-score of ERK-YFP with insulin |
| --- | --- | --- | --- | --- | --- |
| CG30345 | 1 | 0.03 | 0.33 | -0.23 | -0.01 |
| BomS2 | 1 | 0.76 | 0.42 | 1.69 | 0.02 |
| Ugt307A1 | 1 | -0.16 | -0.3 | 1.03 | 0.5 |
| Cyp18a1 | 1 | 1.84 | 1.73 | 1.12 | -0.7 |
| CG32806 | 1 | 0.24 | -0.4 | 0.63 | 1.87 |
| CG13403 | 1 | 0.2 | 0.15 | 0.9 | 0.42 |
| Asator | 1 | 0.25 | -0.66 | -0.16 | -0.02 |
| lva | 1 | 0.66 | 0.11 | 0.24 | 1.21 |
| CG13720 | 1 | -2.19 | -1.26 | -0.05 | 1.72 |
| CG7914 | 1 | -0.08 | 0.01 | 1.17 | 0.32 |
| tadr | 1 | -0.26 | 0.5 | 0.34 | 0.41 |
| CG5937 | 1 | 0.36 | -0.04 | -0.36 | 0.14 |
| ap | 1 | 0.42 | 0.75 | 0.23 | -0.12 |
| Rel | 1 | 0.84 | 1.61 | 0.2 | 0.37 |
| Tmtc1 | 1 | 0.34 | 0.87 | -0.87 | -0.04 |
| Tmtc1 | 2 | -0.05 | -0.62 | -0.6 | 0.42 |
| Tmtc1 | 3 | 1.24 | -0.07 | 0.65 | -0.38 |
| Tmtc1 | 4 | -0.7 | 0.84 | -0.62 | 0.72 |
| mRpL48 | 1 | -1.98 | -0.28 | -0.18 | 2.4 |
| CG15382 | 1 | 0.3 | 0.19 | 0.24 | -0.32 |
| CG33143 | 1 | 0.52 | 0.44 | 0.05 | 0.28 |
| CG33143 | 2 | -0.52 | 0.08 | -0.72 | 0.19 |
| CG8509 | 1 | 0.83 | -0.25 | -1.4 | 0.01 |
| Dus2 | 1 | 0.64 | 0.25 | -0.07 | 0.09 |
| CG8272 | 1 | 0.46 | 0.43 | 0.62 | 0.26 |
| Dcr-1 | 1 | -0.26 | 0.44 | -0.06 | -0.36 |
| Ptp61F | 1 | -1.75 | 1.23 | 1.45 | 0.32 |
| CG13995 | 1 | 1.17 | -0.25 | 2.25 | -0.43 |
| CG13995 | 2 | 0.8 | 0.45 | 0.25 | -0.12 |
| CG13995 | 3 | 1.59 | 1.4 | 0.28 | -0.2 |
| dpr1 | 1 | -0.87 | -0.4 | -0.42 | 0.34 |
| dpr1 | 2 | -0.72 | -0.22 | -0.55 | 0.13 |
